Earlier results, collected in patent publication US10111955B2, “PEG derivative” (priority 2014, dated 2018).

Details: general statement on the known drug; cited from earlier work

CC(=O)O[C@H]1C(=O)[C@@]2(C)[C@H]([C@H](OC(=O)c3ccccc3)[C@]3(O)C[C@H](OC(=O)[C@H](O)[C@@H](NC(=O)c4ccccc4)c4ccccc4)C(C)=C1C3(C)C)[C@]1(OC(C)=O)CO[C@@H]1C[C@@H]2O [Paclitaxel, paclitaxel]
water-solubility: sparingly soluble in water
